Results: the supplement of paper PMC12823440, “Inhibitors supercharge kinase turnover through native proteolytic circuits” (Nature, 2025)
Where a name gives a salt, the structure may show the parent alone. Some of the results follow. Hit calls seldom repeat between salt and free forms of one compound.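 In K562 cells expressing nanoluciferase-fused kinases, luminescence was recorded at 4 h intervals between 2 and 18 h, normalized as percent of control with DMSO at 100% and a positive control at 0%. A significant (2 sigma) signal drop marks a time point as decreased. The authors' rule for a hit is not shown and takes in more than the number of time points.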

The chains behind the UniProt entries cited, without tags or fusion partners. Where a name states a change or a piece, a line headed by the entry shows the natural chain unless it says otherwise.
UniProt Q01974, whole entry: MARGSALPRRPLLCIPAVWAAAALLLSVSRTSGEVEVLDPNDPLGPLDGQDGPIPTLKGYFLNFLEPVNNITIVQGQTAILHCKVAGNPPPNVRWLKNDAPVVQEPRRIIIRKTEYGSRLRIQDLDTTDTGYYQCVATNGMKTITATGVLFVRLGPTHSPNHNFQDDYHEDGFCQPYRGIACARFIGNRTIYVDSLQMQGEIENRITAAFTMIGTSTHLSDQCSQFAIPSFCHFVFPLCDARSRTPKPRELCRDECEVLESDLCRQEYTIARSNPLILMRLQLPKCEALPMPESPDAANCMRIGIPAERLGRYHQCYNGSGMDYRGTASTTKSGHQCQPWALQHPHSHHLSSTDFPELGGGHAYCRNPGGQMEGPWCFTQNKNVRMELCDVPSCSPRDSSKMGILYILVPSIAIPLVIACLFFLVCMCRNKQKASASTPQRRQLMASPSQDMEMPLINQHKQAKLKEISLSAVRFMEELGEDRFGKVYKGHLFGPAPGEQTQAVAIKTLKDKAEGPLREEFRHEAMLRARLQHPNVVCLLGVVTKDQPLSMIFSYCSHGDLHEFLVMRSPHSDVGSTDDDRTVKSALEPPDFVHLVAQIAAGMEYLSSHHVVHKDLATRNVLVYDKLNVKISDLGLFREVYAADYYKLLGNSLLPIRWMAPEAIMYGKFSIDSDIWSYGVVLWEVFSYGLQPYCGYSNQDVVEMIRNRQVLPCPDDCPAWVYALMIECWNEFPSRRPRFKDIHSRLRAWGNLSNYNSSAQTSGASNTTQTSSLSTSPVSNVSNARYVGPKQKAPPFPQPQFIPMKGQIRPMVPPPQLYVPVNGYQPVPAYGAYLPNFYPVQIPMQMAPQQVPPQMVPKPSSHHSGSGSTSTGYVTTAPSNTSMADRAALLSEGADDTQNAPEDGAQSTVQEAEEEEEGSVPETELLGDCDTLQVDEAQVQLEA
UniProt Q15418, whole entry: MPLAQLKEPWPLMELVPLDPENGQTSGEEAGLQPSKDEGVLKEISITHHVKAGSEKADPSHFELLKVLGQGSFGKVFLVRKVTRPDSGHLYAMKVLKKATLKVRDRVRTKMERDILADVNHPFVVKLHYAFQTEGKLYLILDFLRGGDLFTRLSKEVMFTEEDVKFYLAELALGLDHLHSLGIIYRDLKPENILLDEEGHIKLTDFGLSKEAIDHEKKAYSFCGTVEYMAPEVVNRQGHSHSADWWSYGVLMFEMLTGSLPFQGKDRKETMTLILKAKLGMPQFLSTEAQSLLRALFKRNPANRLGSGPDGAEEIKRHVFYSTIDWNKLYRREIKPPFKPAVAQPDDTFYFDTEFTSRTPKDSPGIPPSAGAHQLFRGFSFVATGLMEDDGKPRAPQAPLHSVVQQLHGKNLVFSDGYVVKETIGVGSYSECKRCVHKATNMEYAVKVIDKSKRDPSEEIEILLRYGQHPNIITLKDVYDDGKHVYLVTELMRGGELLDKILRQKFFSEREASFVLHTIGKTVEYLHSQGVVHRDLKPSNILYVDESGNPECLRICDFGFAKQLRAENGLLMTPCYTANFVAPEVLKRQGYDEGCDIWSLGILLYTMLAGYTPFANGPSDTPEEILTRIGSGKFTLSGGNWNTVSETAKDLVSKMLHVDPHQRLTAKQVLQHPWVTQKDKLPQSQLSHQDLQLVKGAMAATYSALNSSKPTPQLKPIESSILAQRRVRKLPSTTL
UniProt Q9NYA1, whole entry: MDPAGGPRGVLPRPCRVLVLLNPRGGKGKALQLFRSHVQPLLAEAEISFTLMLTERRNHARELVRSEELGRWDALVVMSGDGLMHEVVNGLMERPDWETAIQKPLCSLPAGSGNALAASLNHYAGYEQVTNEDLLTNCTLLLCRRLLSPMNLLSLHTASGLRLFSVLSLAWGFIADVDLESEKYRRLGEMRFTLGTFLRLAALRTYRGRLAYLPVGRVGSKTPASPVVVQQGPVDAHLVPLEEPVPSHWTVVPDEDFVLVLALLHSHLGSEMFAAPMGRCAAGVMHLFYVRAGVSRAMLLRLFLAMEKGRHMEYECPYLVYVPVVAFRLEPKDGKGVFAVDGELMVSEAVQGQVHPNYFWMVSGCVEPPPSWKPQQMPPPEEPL
UniProt Q9Y6E0: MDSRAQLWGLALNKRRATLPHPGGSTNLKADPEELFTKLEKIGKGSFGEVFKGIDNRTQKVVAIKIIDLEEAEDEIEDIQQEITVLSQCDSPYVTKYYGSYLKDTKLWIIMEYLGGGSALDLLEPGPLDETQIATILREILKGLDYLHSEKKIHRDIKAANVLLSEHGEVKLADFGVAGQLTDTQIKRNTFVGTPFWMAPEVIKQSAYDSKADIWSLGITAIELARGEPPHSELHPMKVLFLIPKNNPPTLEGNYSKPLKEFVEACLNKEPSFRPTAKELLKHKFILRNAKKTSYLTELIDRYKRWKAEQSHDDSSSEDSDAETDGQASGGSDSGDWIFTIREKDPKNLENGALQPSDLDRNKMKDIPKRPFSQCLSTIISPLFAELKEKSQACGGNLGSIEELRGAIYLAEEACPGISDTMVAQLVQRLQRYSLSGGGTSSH
UniProt Q15208: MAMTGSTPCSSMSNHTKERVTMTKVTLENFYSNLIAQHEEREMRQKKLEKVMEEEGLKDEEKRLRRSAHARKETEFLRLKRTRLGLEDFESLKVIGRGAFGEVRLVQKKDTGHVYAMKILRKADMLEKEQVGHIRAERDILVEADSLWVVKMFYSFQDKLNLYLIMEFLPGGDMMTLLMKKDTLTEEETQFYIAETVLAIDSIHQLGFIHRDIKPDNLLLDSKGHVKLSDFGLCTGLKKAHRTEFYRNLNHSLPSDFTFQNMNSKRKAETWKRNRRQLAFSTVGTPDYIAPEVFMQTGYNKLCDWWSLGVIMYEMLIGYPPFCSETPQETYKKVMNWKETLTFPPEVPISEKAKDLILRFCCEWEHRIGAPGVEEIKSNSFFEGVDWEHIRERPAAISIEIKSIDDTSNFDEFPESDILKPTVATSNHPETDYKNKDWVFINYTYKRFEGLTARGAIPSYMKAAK
UniProt P42680: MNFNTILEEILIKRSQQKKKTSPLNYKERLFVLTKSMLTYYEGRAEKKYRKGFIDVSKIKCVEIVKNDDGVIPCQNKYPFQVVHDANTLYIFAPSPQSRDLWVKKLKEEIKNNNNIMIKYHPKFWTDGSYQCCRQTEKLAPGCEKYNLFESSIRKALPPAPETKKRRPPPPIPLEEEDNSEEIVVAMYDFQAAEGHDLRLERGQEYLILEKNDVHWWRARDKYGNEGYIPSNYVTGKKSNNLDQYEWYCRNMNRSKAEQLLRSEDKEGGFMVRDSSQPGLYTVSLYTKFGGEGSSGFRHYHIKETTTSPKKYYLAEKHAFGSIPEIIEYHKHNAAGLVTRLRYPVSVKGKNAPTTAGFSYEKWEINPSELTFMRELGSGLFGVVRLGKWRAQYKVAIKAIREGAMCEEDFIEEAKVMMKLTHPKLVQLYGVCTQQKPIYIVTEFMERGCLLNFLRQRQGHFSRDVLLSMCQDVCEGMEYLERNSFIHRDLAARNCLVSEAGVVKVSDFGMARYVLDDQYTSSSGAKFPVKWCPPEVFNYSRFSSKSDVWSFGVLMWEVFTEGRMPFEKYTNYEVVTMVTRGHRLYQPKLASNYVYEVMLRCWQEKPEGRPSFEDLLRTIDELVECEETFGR
UniProt P29597: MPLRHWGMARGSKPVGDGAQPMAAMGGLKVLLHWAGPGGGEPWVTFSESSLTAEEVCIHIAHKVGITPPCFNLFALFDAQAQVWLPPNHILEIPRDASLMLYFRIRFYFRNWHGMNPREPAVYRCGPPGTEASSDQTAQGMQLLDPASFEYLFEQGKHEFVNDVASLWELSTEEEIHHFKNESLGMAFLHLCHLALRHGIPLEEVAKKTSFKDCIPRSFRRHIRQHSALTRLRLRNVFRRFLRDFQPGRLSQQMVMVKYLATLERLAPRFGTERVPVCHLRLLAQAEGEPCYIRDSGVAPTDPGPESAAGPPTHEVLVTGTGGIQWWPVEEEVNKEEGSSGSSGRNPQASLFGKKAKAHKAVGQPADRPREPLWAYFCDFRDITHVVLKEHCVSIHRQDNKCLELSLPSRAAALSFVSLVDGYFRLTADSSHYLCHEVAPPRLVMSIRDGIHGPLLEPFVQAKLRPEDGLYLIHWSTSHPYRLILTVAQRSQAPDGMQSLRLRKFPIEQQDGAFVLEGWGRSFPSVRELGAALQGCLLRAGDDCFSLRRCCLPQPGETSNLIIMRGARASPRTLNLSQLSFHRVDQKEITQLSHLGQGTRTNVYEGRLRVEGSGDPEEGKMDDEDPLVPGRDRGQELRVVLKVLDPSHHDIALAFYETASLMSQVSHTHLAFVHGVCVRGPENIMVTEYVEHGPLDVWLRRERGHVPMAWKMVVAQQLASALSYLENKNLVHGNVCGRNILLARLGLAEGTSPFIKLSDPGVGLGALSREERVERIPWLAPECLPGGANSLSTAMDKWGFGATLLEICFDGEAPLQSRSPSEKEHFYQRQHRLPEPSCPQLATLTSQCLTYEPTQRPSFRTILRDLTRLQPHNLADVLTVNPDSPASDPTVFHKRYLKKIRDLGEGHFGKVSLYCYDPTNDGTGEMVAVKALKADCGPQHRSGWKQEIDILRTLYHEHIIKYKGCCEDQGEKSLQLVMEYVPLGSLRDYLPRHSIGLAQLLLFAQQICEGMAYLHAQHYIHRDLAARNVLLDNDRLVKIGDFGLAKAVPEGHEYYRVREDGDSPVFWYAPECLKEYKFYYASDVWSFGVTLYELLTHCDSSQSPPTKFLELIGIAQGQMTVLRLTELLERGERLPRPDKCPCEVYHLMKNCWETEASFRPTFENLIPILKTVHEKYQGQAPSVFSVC
UniProt Q6PHR2: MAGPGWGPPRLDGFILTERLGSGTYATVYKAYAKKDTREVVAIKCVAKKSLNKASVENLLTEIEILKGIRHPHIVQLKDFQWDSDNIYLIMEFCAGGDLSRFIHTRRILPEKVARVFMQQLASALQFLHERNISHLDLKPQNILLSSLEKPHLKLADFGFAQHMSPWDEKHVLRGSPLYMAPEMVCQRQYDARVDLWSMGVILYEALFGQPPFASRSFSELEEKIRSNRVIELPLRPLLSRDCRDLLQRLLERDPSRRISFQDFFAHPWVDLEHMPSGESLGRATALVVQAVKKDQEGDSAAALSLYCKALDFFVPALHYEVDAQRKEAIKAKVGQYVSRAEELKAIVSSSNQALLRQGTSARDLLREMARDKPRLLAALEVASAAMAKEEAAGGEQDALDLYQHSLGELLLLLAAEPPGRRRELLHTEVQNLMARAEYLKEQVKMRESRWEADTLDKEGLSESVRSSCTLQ

Tests used:
Assay in all cases: number of time points (of 5) at which kinase-Nluc abundance scored as decreased, DMSO-normalised (count); higher = more persistent destabilization
Details in all cases: K562; 2-18 h
ROR2 = ROR2 (UniProt Q01974)
RPS6KA1 = RPS6KA1 (UniProt Q15418)
SPHK1 = SPHK1 (UniProt Q9NYA1)
SRC = SRC (UniProt P12931)
STK24 = STK24 (UniProt Q9Y6E0)
STK38 = STK38 (UniProt Q15208)
SYK = SYK (UniProt P43405)
TEC = TEC (UniProt P42680)
TYK2 = TYK2 (UniProt P29597)
ULK3 = ULK3 (UniProt Q6PHR2)

Measured: number of time points

Cn1cnc(-c2cc3nccc(Oc4ccc(NC(=S)NC(=O)Cc5ccccc5)cc4F)c3s2)c1 [MGCD-265 analog] (10 µM)
3: ROR2 | SPHK1
4: STK24 | TEC | ULK3
1: RPS6KA1
0: all other assays above

Nc1ncnc2c1ncn2[C@@H]1O[C@H](CO)C[C@H]1O [Cordycepin] (10 µM)
0: all assays above

CC(C)c1cnc(-c2cc(Cl)ccc2F)cc1Nc1ccncc1C(=O)NC(CO)CO (2.5 µM)
0: all assays above

Cc1ccc(-c2c(C(=O)CCl)n(CCCO)c3ncnc(N)c23)cc1 (10 µM)
1: STK38 | SYK
3: TEC | TYK2 | ULK3
0: all other assays above

Nc1ncnc2c1c(-c1ccc(Oc3ccccc3)cc1)nn2C1CCNCC1 [N-piperidine Ibrutinib (hydrochloride)] (10 µM)
0: all assays above

COc1ccc([C@H]2c3[nH]c4ccc(Cl)cc4c3CCN2C(=O)Oc2ccc(Cl)cc2)cc1 (2.5 µM)
0: all assays above

O=C(/C=C/c1ccc(O)c(O)c1)OC1CC(OC(=O)/C=C/c2ccc(O)c(O)c2)(C(=O)O)CC(O)C1O (stereo not given) [1,3-Dicaffeoylquinic acid] (10 µM)
0: all assays above

N[C@H](Cc1c[nH]c2ccccc12)C(=O)N/N=C/c1ccc2nccnc2c1 [Rhosin (hydrochloride)] (10 µM)
0: all assays above

CCn1c(C(=O)N(C2CC2)C2CC2)cc2c3c(ncn3C)c(Nc3cc(C)n(C)n3)nc21 (10 µM)
0: all assays above

COc1ccc2[nH]cc(/C=C3\C(=O)Nc4ccc(NC(=O)CCN5CCCCC5)cc43)c2c1 (2.5 µM)
0: all assays above

CC1CCc2nc(N)c(C#N)c(-c3cccnc3)c2C1 (stereo not given) (10 µM)
0: all assays above

COc1cc(S(C)(=O)=O)ccc1Nc1nc2ccc(-c3ccc(NC(=O)[C@H](C)c4ccc(F)cc4)cc3)cn2n1 [Empesertib] (10 µM)
0: all assays above

CC(C)=CC[C@H](O)C1=CC(=O)c2c(O)ccc(O)c2C1=O [(-)-Alkannin] (2.5 µM)
0: all assays above

CN1CCN(c2ccc(Nc3ncc4nc(Nc5ccccc5)n([C@@H]5CCN(S(=O)(=O)C6CC6)C5)c4n3)cc2)CC1 (2.5 µM)
0: all assays above

An excerpt from above in order of molecular weight, low to high:
CC1CCc2nc(N)c(C#N)c(-c3cccnc3)c2C1 (stereo not given) (10 µM)
0: all assays above

COc1ccc2[nH]cc(/C=C3\C(=O)Nc4ccc(NC(=O)CCN5CCCCC5)cc43)c2c1 (2.5 µM)
0: all assays above

COc1cc(S(C)(=O)=O)ccc1Nc1nc2ccc(-c3ccc(NC(=O)[C@H](C)c4ccc(F)cc4)cc3)cn2n1 [Empesertib] (10 µM)
0: all assays above

Continuation:

CNC(=O)c1ccc(-c2cnc3cnc(C(=O)N(C)c4ccc(Cl)cc4)cn23)cc1 (2.5 µM)
0: all assays above

N#Cc1c(-c2ccccc2)cc(-c2cc(Br)ccc2O)[nH]c1=O (10 µM)
0: all assays above

Nc1ncnc2c1c(-c1ccc(Oc3ccccc3)cc1)nn2C1CCCNC1 (racemic) (2.5 µM)
0: all assays above

COc1cc2ncnc(Nc3cccc(Cl)c3)c2cc1OC (10 µM)
0: all assays above

Cc1cc([C@H](C)Nc2ccccc2)c2oc(N3CCOCC3)cc(=O)c2c1 (10 µM)
0: all assays above

O=C(NC(NC(=S)Nc1ccc(F)c([N+](=O)[O-])c1)C(Cl)(Cl)Cl)C(c1ccccc1)c1ccccc1 (stereo not given) (10 µM)
0: all assays above

O=C(/C=C/c1ccc(O[C@@H]2O[C@H](CO)[C@@H](O)[C@H](O)[C@H]2O[C@@H]2OC[C@](O)(CO)[C@H]2O)cc1)c1ccc(O)cc1O [Isoliquiritin apioside] (10 µM)
0: all assays above

C[C@@H](c1ccc2nccn2c1)n1nnc2ncc(-c3cnn(C)c3)nc21 [Savolitinib] (10 µM)
0: all assays above

C/C(=C1/C(=O)Nc2ccc(NC(N)=O)cc21)c1ccc[nH]1 (10 µM)
0: all assays above

O=C(Nc1cc(Oc2cc(F)c(NC(=O)C3(C(=O)Nc4ccc(F)cc4)CC3)cc2F)ccn1)C1CC1 [Altiratinib] (10 µM)
4: SPHK1
0: all other assays above

COC1(C(=O)N2Cc3nc(Cl)nc(N[C@H](C)c4cc(N)cc(C(F)(F)F)c4)c3C2)CCOCC1 (10 µM)
0: all assays above

C=CC(=O)Nc1ccc(CN(C(=O)Nc2c(Cl)c(OC)cc(OC)c2Cl)c2cc(Nc3ccc(N4CCN(C)CC4)cc3)ncn2)cc1 (10 µM)
0: all assays above

OCCNC1CCCc2c1[nH]c1ccc(-c3ccccc3)cc21 (stereo not given) (2.5 µM)
2: SPHK1
1: TYK2 | ULK3
0: all other assays above

COc1c(NC(=O)C(=O)c2ccc(OCCN3CCOCC3)c3ccccc23)cc(C(C)(C)C)cc1NS(C)(=O)=O (2.5 µM)
0: all assays above

O=C(Nc1ccc(F)cc1F)[C@H](NC(=S)Nc1cc(C(F)(F)F)cc(C(F)(F)F)c1)c1ccccc1 (2.5 µM)
0: all assays above

O=C(Nc1nc2ccccc2[nH]1)c1cccc(-n2cccc2)c1 (10 µM)
0: all assays above

CCn1c(=O)c(-c2ccc(-c3cncs3)cc2Cl)cc2cnc(Nc3ccc(N4CCN(C)CC4)cc3)nc21 (2.5 µM)
0: all assays above

COc1ccc(CC(=O)Nc2nc3c(s2)CCc2ccccc2-3)cc1OC (10 µM)
0: all assays above

COc1ccc2c(c1O)OC(C)(C)c1c-2ccc2c1C(=O)N(c1ccc(C(=O)c3ccccc3)cc1)C2=O [Ampkinone] (10 µM)
0: all assays above
